Values from PubChem BioAssay AID652259 (Drosophila RNAi Screening Center, 2013)
The deposit covers about 22,000 reagents; below is an unselected part of those with a known target gene and a result. Over the whole deposit, 233 (1.1%) are marked active. 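Light values are raw, unnormalised plate reads; the ratio scores behind the reporter calls were not deposited.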 A plus sign joins genes that one reagent is predicted to hit. Not given: the amount of reagent, the time to read-out, the dose of the treatment.

Aim: 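Knock-downs that push a Wingless-driven reporter up or down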 (primary screen)
System: Drosophila clone 8 imaginal disc epithelial cells
Reagents: long dsRNA against Drosophila genes
Conditions: pathway stimulated by co-transfected Wingless expression plasmid
Read-out: 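Firefly luciferase from a tcf-site Wingless reporter, measured alongside co-transfected Renilla luciferase that tracks transfection; pathway stimulated by a Wingless plasmid; the firefly-to-Renilla ratio is not deposited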
Reading the numbers: firefly reporter light: higher = more Wg reporter light, before normalisation; Renilla control light: higher = more transfected or surviving cells
Rule for the call: 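Strong candidates differ from their plate mean by at least two out of four per-plate statistical tests; weak candidates meet just one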
Calls: active = candidate regulator (raises or lowers reporter); inactive = not a candidate

Target gene | dsRNA | firefly reporter light, replicate 1 | firefly reporter light, replicate 2 | Renilla control light, replicate 1 | Renilla control light, replicate 2 | outcome
sbr | DRSC19770 | 29940 | – | 7389 | – | inactive
sbr | DRSC20368 | 21005 | – | 5852 | – | inactive
RhoGEF4 | DRSC11011 | 3994 | – | 1952 | – | inactive
CG18284 | DRSC02661 | 13969 | – | 3895 | – | inactive
FAM21 | DRSC06623 | 14748 | – | 4467 | – | inactive
CG8420 | DRSC16418 | 12874 | – | 3792 | – | inactive
Slik | DRSC04471 | 5465 | – | 1692 | – | inactive
CG10472 | DRSC09730 | 6242 | – | 3339 | – | inactive
mars | DRSC06656 | 12920 | – | 3158 | – | inactive
Kpc1 | DRSC16107 | 8352 | – | 3942 | – | inactive
CCHa2-R | DRSC04825 | 21559 | – | 8202 | – | inactive
CCHa2-R | DRSC04870 | 2533 | 8537 | 837 | 2866 | inactive
CCHa2-R | DRSC04871 | 2957 | 8618 | 711 | 3132 | inactive
wupA | DRSC20385 | 24316 | – | 16954 | – | inactive
wupA | DRSC22547 | 6.46e5 | 6.60e5 | 2.36e5 | 1.30e5 | inactive
CG14109 | DRSC10112 | 6423 | – | 2489 | – | inactive
Diap1 | DRSC11404 | 161 | – | 87 | – | inactive
CG14535 | DRSC02393 | 2724 | 5622 | 842 | 3312 | inactive
CG3690 | DRSC18170 | 24728 | – | 20899 | – | inactive
CG3690 | DRSC18641 | 20845 | – | 15859 | – | inactive
BEAF-32 + CG42254 (retired record) | DRSC05503 | 21905 | – | 17910 | – | inactive
FLASH | DRSC06872 | 3920 | – | 1264 | – | inactive
Atg101 | DRSC20020 | 12674 | – | 6563 | – | inactive
CG8389 | DRSC07158 | 12289 | – | 4227 | – | inactive
CG8389 | DRSC22855 | 5.63e5 | 5.81e5 | 1.73e5 | 2.41e5 | inactive
CG6295 | DRSC16012 | 8700 | – | 2640 | – | inactive
CG4911 | DRSC10456 | 2282 | – | 1441 | – | inactive
CG13159 | DRSC06283 | 9194 | 7.85e5 | 3856 | 3.98e5 | inactive
CG16985 | DRSC08501 | 7776 | – | 2608 | – | inactive
